# Assay results published in PubChem BioAssay AID588590 (National Center for Advancing Translational Sciences (NCATS), 2011).
# By UniProt entry, the sequences of proteins in these tests, tags left out. Where a name states a change or a piece, a line headed by the entry shows the natural chain unless it says otherwise.
# UniProt Q9UNA4: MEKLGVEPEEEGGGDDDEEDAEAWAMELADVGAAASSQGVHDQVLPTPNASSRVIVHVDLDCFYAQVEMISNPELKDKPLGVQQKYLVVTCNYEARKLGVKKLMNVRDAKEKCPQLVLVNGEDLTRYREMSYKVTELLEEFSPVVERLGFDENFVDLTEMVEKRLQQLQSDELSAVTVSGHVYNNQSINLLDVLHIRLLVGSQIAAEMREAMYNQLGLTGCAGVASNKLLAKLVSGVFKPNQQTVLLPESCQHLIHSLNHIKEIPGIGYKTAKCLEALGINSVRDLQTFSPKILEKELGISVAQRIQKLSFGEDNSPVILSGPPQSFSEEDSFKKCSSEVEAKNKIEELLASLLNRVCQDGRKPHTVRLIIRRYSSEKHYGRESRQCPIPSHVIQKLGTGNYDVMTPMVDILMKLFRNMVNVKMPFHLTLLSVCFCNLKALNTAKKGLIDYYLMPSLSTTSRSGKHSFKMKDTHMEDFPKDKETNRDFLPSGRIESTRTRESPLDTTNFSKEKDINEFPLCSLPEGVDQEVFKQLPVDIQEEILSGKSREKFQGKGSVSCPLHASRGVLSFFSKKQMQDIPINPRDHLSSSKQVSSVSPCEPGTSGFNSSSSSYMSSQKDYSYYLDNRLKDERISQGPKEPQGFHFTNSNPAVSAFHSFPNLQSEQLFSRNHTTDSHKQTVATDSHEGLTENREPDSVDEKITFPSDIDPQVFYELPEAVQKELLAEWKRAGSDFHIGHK
# Several values for one entry are separate records, joined by “and”; a condition that tells them apart may be missing. Equal values may be shown once. The campaign covered roughly 390,000 compounds. About 4,000 (1%) were called active. Inconclusive results, whose numbers are uncertain, are shown with a selection of clear calls. Calls follow the shape of the dose curve; as a rule, active = well fitted inhibition curve with a large enough effect; inconclusive = small, poorly fitted or top-dose-only effect, or another doubt; inactive = no such curve, though single readings can be large or run the other way. Where the call is inconclusive, the potency comes from a doubtful curve fit.
# Molecular target: DNA polymerase iota (Homo sapiens) (UniProt Q9UNA4)
# Test: qHTS for Inhibitors of Polymerase Iota
# Conditions: Pol iota fluorescent replication assay, 10 min; series mostly up to 115 µM; activity, negative = inhibition: at the top concentration
# Procedure, shortened: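 Fluorescent replication assay read twice, at 0 min and 10 min after adding 50 nM (final) substrate. Enzyme (10 nM) and compounds were first incubated 15 min at room temperature; enzyme-free buffer wells were negative controls.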
# Potency is read from the fitted curve at half-maximal effect.
Structure (SMILES),Potency,"activity, negative = inhibition"
CN1CCc2cc3c(c4c2[C@H]1[C@H](O)c1ccccc1-4)OCO3,"inconclusive: 17.8 µM [inhibitor, full curve, poor fit]",–
Cn1ncc2c(Nc3ccc4ccccc4c3)ncnc21,"inconclusive: 112 µM [inhibitor, partial curve, poor fit]",–
COC(=O)c1ccc(CSc2nnc3ccc4ccccc4n23)cc1,–,inactive: 20.6%
CC(=O)c1ccc(NC(=O)c2ccc3snnc3c2)cc1,"inconclusive: 79.4 µM [inhibitor, single point]",–
Cc1ccc(Cl)cc1N1CCN(C(=O)Cn2ncc3c4ccccc4n(C)c3c2=O)CC1,"inconclusive: 79.4 µM [inhibitor, partial curve]",–
CCC(=O)Oc1c(Sc2ccc(Cl)cc2)c(C)nn1-c1ccccc1,"inconclusive: 28.2 µM [inhibitor, partial curve, poor fit]",–
OC[C@@H](O)[C@H](O)C(/C=N/Nc1ccccc1)=N\Nc1ccccc1,–,inactive: 126%
NC(=O)c1c(NC(=O)CS(=O)(=O)c2ccc(Cl)cc2)sc2c1CCCCC2,–,inactive: -19.2%
O=C(CNC(=O)[C@@H]1Cc2ccccc2CN1)NC1CCCCC1,"inconclusive: 20 µM [inhibitor, partial curve, poor fit]",–
O=C(c1cnn2c(C(F)F)cc(C3CC3)nc12)N1CCCC1,–,inactive: 7.97%
CCN(CC)S(=O)(=O)c1ccc(C(=O)OCC(=O)NCc2ccco2)cc1,"inconclusive: 56.2 µM [inhibitor, partial curve, poor fit]",–
CC(C(=O)Nc1cc(C(F)(F)F)ccc1N1CCOCC1)N1C(=O)C2CC=CCC2C1=O (centres undefined),"inconclusive: 7.94 µM [inhibitor, single point]",–
Cc1ccc(C(=O)NC(Cc2cccc(F)c2)C(=O)O)cc1 (centres undefined),"inconclusive: 0.794 µM [inhibitor, full curve, poor fit]",–
COc1ccc(N(C(=O)c2snc(C(N)=O)c2N)C(C(=O)NC2CCCC2)c2ccc3ncccc3c2)cc1 (centres undefined),"inconclusive: 39.8 µM [inhibitor, single point]",–
CCn1cc(S(=O)(=O)c2cccc(C)c2)c(=O)c2cc(F)c(N3CCCC(C)C3)cc21 (centres undefined),–,inactive: 3.36%
C#CCOCCOCCOCCNc1nc(N2CCN(C(=O)[C@H](CCCCN)n3cc([C@@H](N)CC(C)C)nn3)CC2)nc(N2CCN(C(=O)[C@H](Cc3ccc(O)cc3)n3cc([C@@H](N)CC(C)C)nn3)CC2)n1,"inconclusive: 20 µM [inhibitor, partial curve, poor fit]",–
CCCCCN=Cc1c(C)[nH]n(-c2nc3ccccc3s2)c1=O,–,inactive: -1.92%
CN(C(=O)COC(=O)Cn1cnc2c1c(=O)n(C)c(=O)n2C)C1(C#N)CCCCC1,"inconclusive: 79.4 µM [inhibitor, single point]",–
Cc1cccc(NCc2ccc(O)c3ncccc23)c1,–,inactive: 39.7%
CCOC(=O)Cn1c(=O)oc2cc(S(=O)(=O)N3CCn4c3nc3ccccc34)ccc21,"inconclusive: 89.1 µM [inhibitor, single point]",–

# Individual results from the list:
# CCOC(=O)Cn1c(=O)oc2cc(S(=O)(=O)N3CCn4c3nc3ccccc34)ccc21 – Potency: inconclusive: 89.1 µM [inhibitor, single point]
# Cc1cccc(NCc2ccc(O)c3ncccc23)c1 – activity, negative = inhibition: inactive: 39.7%
# O=C(CNC(=O)[C@@H]1Cc2ccccc2CN1)NC1CCCCC1 – Potency: inconclusive: 20 µM [inhibitor, partial curve, poor fit]

# Remaining list, next part

Structure (SMILES),Potency,"activity, negative = inhibition"
O=C1NN(c2cccc(Br)c2)C(=O)/C1=C\c1ccc(O)cc1,"inconclusive: 14.1 µM [inhibitor, partial curve, poor fit]",–
Cc1cc(SCC(=O)N/N=C/c2ccc(O)c(O)c2O)c(C)cc1Br,"inconclusive: 6.31 µM [inhibitor, full curve, poor fit]",–
Cc1ccc(NC(=S)NNC(=O)c2cn(C)nc2C)cc1,"inconclusive: 56.2 µM [inhibitor, partial curve, poor fit]",–
Cc1ccccc1NC(=O)c1c(C)oc2ccc(O)c(CN3CCOCC3)c12,–,inactive: 9.35%
COc1ccc(C(CNS(=O)(=O)c2ccc(C)cc2)N2CCN(C)CC2)cc1 (centres undefined),"inconclusive: 35.5 µM [inhibitor, partial curve, poor fit]",–
COc1ccc(Oc2nc(-c3ccccn3)nc3ccccc23)cc1,"inconclusive: 39.8 µM [inhibitor, single point]",–
Oc1cc(CNC2CCCCC2)c(O)cc1CNC1CCCCC1,"inconclusive: 12.6 µM [inhibitor, full curve, poor fit]",–
C[C@@H](NC(=O)/C(C#N)=C/c1ccc(O)c(O)c1)c1ccccc1,"inconclusive: 44.7 µM [inhibitor, full curve, poor fit] and inconclusive: 12.6 µM [inhibitor, partial curve, poor fit] and inconclusive: 50.1 µM [inhibitor, partial curve, poor fit]",–
O=C(Nc1ccc(Br)cc1F)c1ccc2c(c1)N(Cc1ccccc1)C(=O)CS2=O (centres undefined),"inconclusive: 89.1 µM [inhibitor, partial curve, poor fit]",–
CCN(CC)S(=O)(=O)c1cccc(C(=O)N/N=C/c2cccc(O)c2O)c1,active: 20 µM,–
O=C(Nc1ccc2c(c1)C(=O)c1ccccc1-2)c1ccccc1,–,inactive: -10.5%
Cc1ccc2c(=O)cc(C(=O)Nc3ccc(S(=O)(=O)Nc4onc(C)c4C)cc3)oc2c1C,"inconclusive: 89.1 µM [inhibitor, single point]",–
COc1cc(NS(=O)(=O)c2ccc(NC(=S)NC(=O)c3ccc(F)cc3)cc2)nc(OC)n1,–,inactive: 11.8%
Cc1cc(C)nc(-n2nc(C)c3c2N(Cc2ccccc2)C(=O)CC3c2ccc(Cl)cc2)n1 (centres undefined),–,inactive: 7.17%
CS(=O)(=O)c1sc2nc(-c3cccs3)cc(-c3ccccc3)c2c1N,"inconclusive: 15.8 µM [inhibitor, partial curve, poor fit]",–
O=C1SCCC1NS(=O)(=O)c1ccccc1[N+](=O)[O-] (centres undefined),"inconclusive: 22.4 µM [inhibitor, single point]",–
COc1ccc(C(=O)Nc2cc(Cl)ccc2OC(=O)c2ccc(OC)cc2)cc1,"inconclusive: 15.8 µM [inhibitor, full curve, poor fit]",–
C/C(=C\c1ccco1)C1C(C#N)=C(N)Oc2n[nH]c(-c3ccc(C)cc3)c21 (centres undefined),"inconclusive: 31.6 µM [inhibitor, single point]",–
Cc1cc(C)cc(-n2c(C)cc(C(=O)C(=O)Nc3ccccc3F)c2C)c1,"inconclusive: 89.1 µM [inhibitor, single point]",–
